Where a chain is given by its changes, count along the chain named. Results are given in words; binding and its absence hold for the method and conditions named. For part of these data: In cells and extracts the contact can be indirect. Some binding calls cover weakened binding; strength is not graded here. For part of these data: Tags and fused reporters may be left off the sequences shown.
Legend:
[1] = target: T1, CAT2-F143V, in pGBKT7 (Arabidopsis thaliana) (UniProt P25819); test: two-hybrid; yeast two-hybrid; CAT2 forms in pGBKT7, ACX2 and ACX3 in pGADT7; growth of yeast as in Yuan et al., 2017
T1 sequence: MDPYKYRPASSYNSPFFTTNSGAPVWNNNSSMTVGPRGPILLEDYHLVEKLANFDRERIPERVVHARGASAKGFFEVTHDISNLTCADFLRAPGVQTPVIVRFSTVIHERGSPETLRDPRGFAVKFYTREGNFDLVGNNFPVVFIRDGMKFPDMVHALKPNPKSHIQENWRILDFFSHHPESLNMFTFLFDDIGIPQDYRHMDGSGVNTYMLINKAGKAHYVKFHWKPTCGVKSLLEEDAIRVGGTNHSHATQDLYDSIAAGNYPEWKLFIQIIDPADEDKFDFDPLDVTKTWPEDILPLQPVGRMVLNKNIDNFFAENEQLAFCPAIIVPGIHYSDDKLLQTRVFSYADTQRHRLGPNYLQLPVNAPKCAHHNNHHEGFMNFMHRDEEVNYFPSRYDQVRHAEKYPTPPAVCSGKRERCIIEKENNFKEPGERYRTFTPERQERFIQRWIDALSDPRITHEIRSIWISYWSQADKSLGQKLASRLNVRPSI

[2] = target: T2, CAT2-H65A, in pGBKT7 (Arabidopsis thaliana) (UniProt P25819); test: as above
T2 sequence: T1 sequence with H65A, V143F

[3] = target: T3, CAT2-V106A, in pGBKT7 (Arabidopsis thaliana) (UniProt P25819); test: as above
T3 sequence: T1 sequence with V106A, V143F

[4] = target: T4, CAT2-Y348V, in pGBKT7 (Arabidopsis thaliana) (UniProt P25819); test: as above
T4 sequence: T1 sequence with V143F, Y348V

[5] = target: T5, CATALASE2 (CAT2), full length, in pGBKT7 (Arabidopsis thaliana) (UniProt P25819); test: as above
T5 sequence: T1 sequence with V143F

[6] = target: T6, nYFP-tagged CAT2 (full length), BiFC construct in pSP-YNE (Arabidopsis) (UniProt P25819); test: split reporter; BiFC in N. benthamiana leaves; CAT2 forms in pSP-YNE (nYFP), ACX2 and ACX3 in pSP-YCE (cYFP); confocal microscopy three days after infiltration; mCherry-SKL marks the peroxisomes
T6 sequence: T1 sequence with V143F

Measured: binding

B1: acyl-CoA oxidase 2 (ACX2), in pGADT7 (enzyme, UniProt O65201 1-692)
chain: MESRREKNPMTEEESDGLIAARRIQRLSLHLSPSLTPSPSLPLVQTETCSARSKKLDVNGEALSLYMRGKHIDIQEKIFDFFNSRPDLQTPIEISKDDHRELCMNQLIGLVREAGVRPFRYVADDPEKYFAIMEAVGSVDMSLGIKMGVQYSLWGGSVINLGTKKHRDKYFDGIDNLDYTGCFAMTELHHGSNVQGLQTTATFDPLKDEFVIDTPNDGAIKWWIGNAAVHGKFATVFARLILPTHDSKGVSDMGVHAFIVPIRDMKTHQTLPGVEIQDCGHKVGLNGVDNGALRFRSVRIPRDNLLNRFGDVSRDGTYTSSLPTINKRFGATLGELVGGRVGLAYASVGVLKISATIAIRYSLLRQQFGPPKQPEVSILDYQSQQHKLMPMLASTYAYHFATVYLVEKYSEMKKTHDEQLVADVHALSAGLKSYVTSYTAKALSVCREACGGHGYAAVNRFGSLRNDHDIFQTFEGDNTVLLQQVAADLLKRYKEKFQGGTLTVTWSYLRESMNTYLSQPNPVTARWEGEDHLRDPKFQLDAFRYRTSRLLQNVAARLQKHSKTLGGFGAWNRCLNHLLTLAESHIETVILAKFIEAVKNCPDPSAKAALKLACDLYALDRIWKDIGTYRNVDYVAPNKAKAIHKLTEYLSFQVRNVAKELVDAFELPDHVTRAPIAMQSDAYSQYTQVVGF
not listed: [6]
binds: all other assays above

B2: acyl-CoA oxidase 3 (ACX3), in pGADT7 (enzyme, UniProt P0CZ23 1-675)
chain: MSDNRALRRAHVLANHILQSNPPSSNPSLSRELCLQYSPPELNESYGFDVKEMRKLLDGHNVVDRDWIYGLMMQSNLFNRKERGGKIFVSPDYNQTMEQQREITMKRIWYLLENGVFKGWLTETGPEAELRKLALLEVCGIYDHSVSIKVGVHFFLWGNAVKFFGTKRHHEKWLKNTEDYVVKGCFAMTELGHGSNVRGIETVTTYDPKTEEFVINTPCESAQKYWIGGAANHATHTIVFSQLHINGTNQGVHAFIAQIRDQDGSICPNIRIADCGHKIGLNGVDNGRIWFDNLRIPRENLLNAVADVSSDGKYVSSIKDPDQRFGAFMAPLTSGRVTIASSAIYSAKVGLSIAIRYSLSRRAFSVTANGPEVLLLDYPSHQRRLLPLLAKTYAMSFAANELKMIYVKRTPETNKAIHVVSSGFKAVLTWHNMHTLQECREAVGGQGVKTENLVGQLKGEFDVQTTFEGDNNVLMQQVSKALFAEYVSCKKRNKPFKGLGLEHMNSPRPVLPTQLTSSTLRCSQFQTNVFCLRERDLLEQFTSEVAQLQGRGESREFSFLLSHQLAEDLGKAFTEKAILQTILDAEAKLPTGSVKDVLGLVRSMYALISLEEDPSLLRYGYLSQDNVGDVRREVSKLCGELRPHALALVTSFGIPDSFLSPIAFNWVEANAWSSV
not listed: [6]
binds: all other assays above

B3: cYFP-tagged ACX2, BiFC construct in pSP-YCE (enzyme, UniProt O65201 50-692)
chain: SARSKKLDVNGEALSLYMRGKHIDIQEKIFDFFNSRPDLQTPIEISKDDHRELCMNQLIGLVREAGVRPFRYVADDPEKYFAIMEAVGSVDMSLGIKMGVQYSLWGGSVINLGTKKHRDKYFDGIDNLDYTGCFAMTELHHGSNVQGLQTTATFDPLKDEFVIDTPNDGAIKWWIGNAAVHGKFATVFARLILPTHDSKGVSDMGVHAFIVPIRDMKTHQTLPGVEIQDCGHKVGLNGVDNGALRFRSVRIPRDNLLNRFGDVSRDGTYTSSLPTINKRFGATLGELVGGRVGLAYASVGVLKISATIAIRYSLLRQQFGPPKQPEVSILDYQSQQHKLMPMLASTYAYHFATVYLVEKYSEMKKTHDEQLVADVHALSAGLKSYVTSYTAKALSVCREACGGHGYAAVNRFGSLRNDHDIFQTFEGDNTVLLQQVAADLLKRYKEKFQGGTLTVTWSYLRESMNTYLSQPNPVTARWEGEDHLRDPKFQLDAFRYRTSRLLQNVAARLQKHSKTLGGFGAWNRCLNHLLTLAESHIETVILAKFIEAVKNCPDPSAKAALKLACDLYALDRIWKDIGTYRNVDYVAPNKAKAIHKLTEYLSFQVRNVAKELVDAFELPDHVTRAPIAMQSDAYSQYTQVVGF
binds: [6]

B4: cYFP-tagged ACX3, BiFC construct in pSP-YCE (enzyme, UniProt P0CZ23 35-675)
chain: LQYSPPELNESYGFDVKEMRKLLDGHNVVDRDWIYGLMMQSNLFNRKERGGKIFVSPDYNQTMEQQREITMKRIWYLLENGVFKGWLTETGPEAELRKLALLEVCGIYDHSVSIKVGVHFFLWGNAVKFFGTKRHHEKWLKNTEDYVVKGCFAMTELGHGSNVRGIETVTTYDPKTEEFVINTPCESAQKYWIGGAANHATHTIVFSQLHINGTNQGVHAFIAQIRDQDGSICPNIRIADCGHKIGLNGVDNGRIWFDNLRIPRENLLNAVADVSSDGKYVSSIKDPDQRFGAFMAPLTSGRVTIASSAIYSAKVGLSIAIRYSLSRRAFSVTANGPEVLLLDYPSHQRRLLPLLAKTYAMSFAANELKMIYVKRTPETNKAIHVVSSGFKAVLTWHNMHTLQECREAVGGQGVKTENLVGQLKGEFDVQTTFEGDNNVLMQQVSKALFAEYVSCKKRNKPFKGLGLEHMNSPRPVLPTQLTSSTLRCSQFQTNVFCLRERDLLEQFTSEVAQLQGRGESREFSFLLSHQLAEDLGKAFTEKAILQTILDAEAKLPTGSVKDVLGLVRSMYALISLEEDPSLLRYGYLSQDNVGDVRREVSKLCGELRPHALALVTSFGIPDSFLSPIAFNWVEANAWSSV
binds: [6]
